These are yes or no findings as the source states them, for the method shown. In cells and extracts the contact can be indirect. Binding calls can cover weak binding; strength is not graded here. Tags and fused reporters may be left off the sequences shown.

By UniProt entry, the sequences of proteins in these tests, tags left out. Where a name states a change or a piece, a line headed by the entry shows the natural chain unless it says otherwise.
UniProt Q14683: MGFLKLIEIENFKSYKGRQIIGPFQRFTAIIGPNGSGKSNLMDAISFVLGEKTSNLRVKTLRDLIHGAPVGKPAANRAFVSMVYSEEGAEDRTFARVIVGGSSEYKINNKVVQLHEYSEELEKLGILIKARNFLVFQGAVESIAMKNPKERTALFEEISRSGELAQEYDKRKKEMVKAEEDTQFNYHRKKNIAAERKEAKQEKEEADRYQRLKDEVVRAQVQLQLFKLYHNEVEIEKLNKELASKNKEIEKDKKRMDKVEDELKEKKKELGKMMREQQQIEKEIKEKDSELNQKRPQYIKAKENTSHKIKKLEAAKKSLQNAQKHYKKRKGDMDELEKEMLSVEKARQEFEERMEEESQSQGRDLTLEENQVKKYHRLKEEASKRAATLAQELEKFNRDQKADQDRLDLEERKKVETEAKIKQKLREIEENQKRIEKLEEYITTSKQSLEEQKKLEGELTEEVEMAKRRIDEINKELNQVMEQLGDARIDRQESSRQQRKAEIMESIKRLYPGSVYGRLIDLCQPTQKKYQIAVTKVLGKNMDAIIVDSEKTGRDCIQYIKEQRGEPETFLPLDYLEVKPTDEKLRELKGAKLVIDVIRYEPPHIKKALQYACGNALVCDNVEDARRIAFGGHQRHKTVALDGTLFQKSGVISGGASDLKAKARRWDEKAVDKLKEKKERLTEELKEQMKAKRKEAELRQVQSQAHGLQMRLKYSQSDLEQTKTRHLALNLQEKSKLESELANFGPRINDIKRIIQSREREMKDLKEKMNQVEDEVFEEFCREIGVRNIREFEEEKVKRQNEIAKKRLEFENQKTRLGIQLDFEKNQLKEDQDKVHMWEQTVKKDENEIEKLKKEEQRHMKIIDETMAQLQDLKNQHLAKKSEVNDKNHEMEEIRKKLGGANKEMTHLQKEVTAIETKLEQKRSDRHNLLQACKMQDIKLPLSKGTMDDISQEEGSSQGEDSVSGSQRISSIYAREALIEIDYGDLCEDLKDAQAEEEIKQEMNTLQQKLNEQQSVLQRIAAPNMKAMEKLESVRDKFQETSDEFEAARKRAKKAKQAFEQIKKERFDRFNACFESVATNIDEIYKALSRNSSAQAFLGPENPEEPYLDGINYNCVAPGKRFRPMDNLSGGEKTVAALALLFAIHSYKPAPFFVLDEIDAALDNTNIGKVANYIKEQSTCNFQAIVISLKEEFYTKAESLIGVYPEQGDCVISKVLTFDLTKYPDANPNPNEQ

The assay has as its target T1, full length HIS-tagged Satb1 (UniProt Q01826).
T1 sequence: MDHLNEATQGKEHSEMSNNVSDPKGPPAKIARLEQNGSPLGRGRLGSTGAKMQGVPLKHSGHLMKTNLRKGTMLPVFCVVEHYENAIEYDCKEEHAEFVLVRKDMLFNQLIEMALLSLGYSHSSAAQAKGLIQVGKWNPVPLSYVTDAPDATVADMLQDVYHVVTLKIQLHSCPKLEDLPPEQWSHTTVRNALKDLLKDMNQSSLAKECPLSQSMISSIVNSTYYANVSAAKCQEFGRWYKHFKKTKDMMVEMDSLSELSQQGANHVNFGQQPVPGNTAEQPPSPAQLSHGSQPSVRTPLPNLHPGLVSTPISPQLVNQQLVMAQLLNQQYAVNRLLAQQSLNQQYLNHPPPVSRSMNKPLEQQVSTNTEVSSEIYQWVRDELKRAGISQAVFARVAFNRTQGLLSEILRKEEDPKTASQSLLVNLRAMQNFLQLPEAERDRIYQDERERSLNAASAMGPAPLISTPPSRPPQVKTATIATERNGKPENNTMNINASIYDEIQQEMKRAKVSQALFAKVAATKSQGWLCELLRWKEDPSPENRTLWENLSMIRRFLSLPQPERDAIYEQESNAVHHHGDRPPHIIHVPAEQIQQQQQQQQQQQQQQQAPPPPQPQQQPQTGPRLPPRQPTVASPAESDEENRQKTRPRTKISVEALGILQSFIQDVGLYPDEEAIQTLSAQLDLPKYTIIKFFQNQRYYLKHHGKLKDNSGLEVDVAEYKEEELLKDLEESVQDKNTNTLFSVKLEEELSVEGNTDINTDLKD
Put plainly: pull-down.

In the case of “Smc1a Hinge domain, GST-tagged (from UniProt Q14683) (domain or fragment)”, the binding result is recorded as “binds weakly”.

For the origin of these results see paper doi:10.1101/2025.06.19.657327.
